Reference: paper PMC9016969
Results are given in words; binding and its absence hold for the method and conditions named. Binding seen in cells or lysates may run through a third protein. Some results given as binding are weak or reduced against the parent protein; the word gives no strength. For some assays here: Tags and fused reporters may be left off the sequences shown.

Amino acid sequences for entries named in this document (tags omitted).
UniProt Q8NFU7: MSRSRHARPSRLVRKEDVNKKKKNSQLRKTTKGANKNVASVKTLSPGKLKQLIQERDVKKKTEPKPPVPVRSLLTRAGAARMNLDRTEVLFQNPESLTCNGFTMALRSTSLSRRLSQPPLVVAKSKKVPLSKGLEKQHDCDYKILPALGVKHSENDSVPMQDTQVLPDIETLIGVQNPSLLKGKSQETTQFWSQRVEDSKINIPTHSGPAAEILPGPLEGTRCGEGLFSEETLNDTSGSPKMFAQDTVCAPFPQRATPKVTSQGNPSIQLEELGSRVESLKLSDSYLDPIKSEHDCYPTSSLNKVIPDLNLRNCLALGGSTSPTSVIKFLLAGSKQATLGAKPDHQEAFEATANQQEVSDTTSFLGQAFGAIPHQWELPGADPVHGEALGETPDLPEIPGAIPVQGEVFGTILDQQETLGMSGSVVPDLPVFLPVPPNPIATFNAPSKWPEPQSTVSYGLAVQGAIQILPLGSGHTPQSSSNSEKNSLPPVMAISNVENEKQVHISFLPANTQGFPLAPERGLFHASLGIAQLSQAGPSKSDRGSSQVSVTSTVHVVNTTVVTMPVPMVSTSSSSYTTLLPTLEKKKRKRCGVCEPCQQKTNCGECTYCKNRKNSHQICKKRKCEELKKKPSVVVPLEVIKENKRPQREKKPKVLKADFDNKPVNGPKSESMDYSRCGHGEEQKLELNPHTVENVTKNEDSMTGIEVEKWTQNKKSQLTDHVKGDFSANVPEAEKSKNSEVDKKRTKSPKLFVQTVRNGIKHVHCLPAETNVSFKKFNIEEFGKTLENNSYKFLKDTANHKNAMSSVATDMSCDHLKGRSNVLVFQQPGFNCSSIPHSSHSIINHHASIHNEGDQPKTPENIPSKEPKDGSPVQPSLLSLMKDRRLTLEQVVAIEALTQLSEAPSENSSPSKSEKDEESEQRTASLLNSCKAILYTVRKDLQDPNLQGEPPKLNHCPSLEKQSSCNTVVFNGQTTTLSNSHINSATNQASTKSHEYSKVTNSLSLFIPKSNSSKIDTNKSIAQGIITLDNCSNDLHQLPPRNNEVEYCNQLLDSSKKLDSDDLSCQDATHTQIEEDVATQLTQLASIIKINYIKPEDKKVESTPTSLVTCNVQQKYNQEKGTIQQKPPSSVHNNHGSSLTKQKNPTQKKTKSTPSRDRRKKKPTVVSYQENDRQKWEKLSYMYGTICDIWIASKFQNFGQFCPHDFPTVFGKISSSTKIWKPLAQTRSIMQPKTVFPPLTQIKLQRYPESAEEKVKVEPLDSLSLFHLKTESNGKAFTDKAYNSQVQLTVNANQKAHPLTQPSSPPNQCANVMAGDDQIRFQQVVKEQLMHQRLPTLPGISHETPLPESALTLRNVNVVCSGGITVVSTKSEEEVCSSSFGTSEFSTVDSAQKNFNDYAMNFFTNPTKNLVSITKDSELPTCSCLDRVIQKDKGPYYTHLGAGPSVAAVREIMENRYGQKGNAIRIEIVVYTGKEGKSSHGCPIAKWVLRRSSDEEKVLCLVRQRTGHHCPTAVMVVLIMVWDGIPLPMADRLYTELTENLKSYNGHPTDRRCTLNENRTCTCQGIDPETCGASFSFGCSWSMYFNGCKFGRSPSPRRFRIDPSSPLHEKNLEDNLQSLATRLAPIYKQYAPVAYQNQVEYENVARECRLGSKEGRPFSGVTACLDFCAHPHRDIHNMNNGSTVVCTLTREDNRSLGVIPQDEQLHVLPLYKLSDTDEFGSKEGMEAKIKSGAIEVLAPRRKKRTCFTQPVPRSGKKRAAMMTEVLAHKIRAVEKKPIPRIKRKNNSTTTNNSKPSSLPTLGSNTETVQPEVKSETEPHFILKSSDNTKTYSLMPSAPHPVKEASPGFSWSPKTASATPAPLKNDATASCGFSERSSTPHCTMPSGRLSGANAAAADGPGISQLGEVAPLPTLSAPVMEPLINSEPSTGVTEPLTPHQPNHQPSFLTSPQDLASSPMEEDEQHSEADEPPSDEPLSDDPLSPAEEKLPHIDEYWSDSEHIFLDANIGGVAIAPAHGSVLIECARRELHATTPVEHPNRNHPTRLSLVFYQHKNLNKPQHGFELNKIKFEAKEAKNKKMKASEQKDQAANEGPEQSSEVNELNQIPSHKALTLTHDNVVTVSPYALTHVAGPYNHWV

B1: FOXA1-V5 (protein, UniProt P55317-1 1-472)
chain: MLGTVKMEGHETSDWNSYYADTQEAYSSVPVSNMNSGLGSMNSMNTYMTMNTMTTSGNMTPASFNMSYANPGLGAGLSPGAVAGMPGGSAGAMNSMTAAGVTAMGTALSPSGMGAMGAQQAASMNGLGPYAAAMNPCMSPMAYAPSNLGRSRAGGGGDAKTFKRSYPHAKPPYSYISLITMAIQQAPSKMLTLSEIYQWIMDLFPYYRQNQQRWQNSIRHSLSFNDCFVKVARSPDKPGKGSYWTLHPDSGNMFENGCYLRRQKRFKCEKQPGAGGGGGSGSGGSGAKGGPESRKDPSGASNPSADSPLHRGVHGKTGQLEGAPAPGPAASPQTLDHSGATATGGASELKTPASSTAPPISSGPGALASVPASHPAHGLAPHESQLHLKGDPHYSFNHPFSINNLMSSSEQQHKLDFKAYEQALQYSPYGSTLPASLPLGSASVTTRSPIEPSALEPAYYQGVYSRPVLNTS

Columns and labels:
[1] = molecular target: T1, FOXA1 (endogenous, MCF-7) (human (endogenous in MCF-7)) (UniProt P55317); experiment: co-IP; endogenous IP: rabbit anti-FOXA1 antibody on protein G Dynabeads with MCF-7 nuclear extract, 2 h at 4 °C; normal IgG as negative control; western blot
T1 sequence: B1 chain

GST-TET1 (human) = GST-TET1 (human) (UniProt Q8NFU7); experiment: pull-down; GST fusion proteins pre-bound to glutathione-Sepharose beads (50 mM Tris HCl pH 8.0, 150 mM NaCl, 5 mM EDTA, 1% Triton X-100, 1 mM DTT), incubated 1 h at 4 °C with whole cell lysate of transfected COS-1 cells; washed 3 x in KAc interaction buffer; immunoblot; only the target purified

Row | Molecule | binding [1] | binding (GST-TET1 (human))
1 | TET2 (endogenous, MCF-7) (from UniProt Q6N021-1 1-2002) | binds | 
2 | B1 |  | binds
